This note sets out measurements from the supplement of paper PMC6411743.

Chains of the proteins cited; added tags and fusions are not shown. Lines headed by an entry give the natural chain unless they say otherwise; changes in a name come on top.
UniProt P53634: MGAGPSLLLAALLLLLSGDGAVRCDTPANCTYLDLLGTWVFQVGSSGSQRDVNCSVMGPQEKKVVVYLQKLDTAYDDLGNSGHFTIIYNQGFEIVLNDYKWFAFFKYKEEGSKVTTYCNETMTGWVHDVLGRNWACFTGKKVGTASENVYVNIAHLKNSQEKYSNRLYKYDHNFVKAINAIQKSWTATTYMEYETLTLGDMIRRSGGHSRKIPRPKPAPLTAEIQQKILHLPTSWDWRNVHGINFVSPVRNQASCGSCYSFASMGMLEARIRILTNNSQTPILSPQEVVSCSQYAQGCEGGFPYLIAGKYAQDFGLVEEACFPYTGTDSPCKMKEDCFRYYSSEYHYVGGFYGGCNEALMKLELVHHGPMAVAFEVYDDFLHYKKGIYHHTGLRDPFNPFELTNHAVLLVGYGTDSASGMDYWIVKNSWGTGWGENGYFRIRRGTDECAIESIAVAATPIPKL
UniProt P55010, whole entry: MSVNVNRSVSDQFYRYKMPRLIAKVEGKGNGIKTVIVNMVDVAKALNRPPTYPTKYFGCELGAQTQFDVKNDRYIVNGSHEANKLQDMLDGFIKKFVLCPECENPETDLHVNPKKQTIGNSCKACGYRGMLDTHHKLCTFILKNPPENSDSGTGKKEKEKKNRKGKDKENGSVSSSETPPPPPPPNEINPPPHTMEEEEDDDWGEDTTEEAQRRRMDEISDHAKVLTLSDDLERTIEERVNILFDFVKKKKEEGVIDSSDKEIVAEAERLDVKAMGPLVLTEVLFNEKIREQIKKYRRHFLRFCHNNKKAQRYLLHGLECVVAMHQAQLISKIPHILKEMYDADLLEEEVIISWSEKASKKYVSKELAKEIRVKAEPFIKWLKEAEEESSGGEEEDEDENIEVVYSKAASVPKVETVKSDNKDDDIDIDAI
UniProt P50995, whole entry: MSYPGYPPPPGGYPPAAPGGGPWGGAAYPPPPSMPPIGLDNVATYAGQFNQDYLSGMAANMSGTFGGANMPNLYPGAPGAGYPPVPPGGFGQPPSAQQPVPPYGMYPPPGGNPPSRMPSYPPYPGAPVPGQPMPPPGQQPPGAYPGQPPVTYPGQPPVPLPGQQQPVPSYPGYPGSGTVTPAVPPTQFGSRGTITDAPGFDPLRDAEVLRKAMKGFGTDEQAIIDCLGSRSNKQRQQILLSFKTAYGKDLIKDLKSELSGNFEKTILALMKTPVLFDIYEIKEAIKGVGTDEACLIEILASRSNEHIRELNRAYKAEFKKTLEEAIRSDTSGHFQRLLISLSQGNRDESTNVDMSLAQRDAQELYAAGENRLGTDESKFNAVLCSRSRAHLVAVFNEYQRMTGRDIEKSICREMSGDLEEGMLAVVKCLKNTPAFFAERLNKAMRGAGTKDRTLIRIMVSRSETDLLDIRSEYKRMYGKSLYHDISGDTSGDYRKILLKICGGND
UniProt P63092, whole entry, looked up: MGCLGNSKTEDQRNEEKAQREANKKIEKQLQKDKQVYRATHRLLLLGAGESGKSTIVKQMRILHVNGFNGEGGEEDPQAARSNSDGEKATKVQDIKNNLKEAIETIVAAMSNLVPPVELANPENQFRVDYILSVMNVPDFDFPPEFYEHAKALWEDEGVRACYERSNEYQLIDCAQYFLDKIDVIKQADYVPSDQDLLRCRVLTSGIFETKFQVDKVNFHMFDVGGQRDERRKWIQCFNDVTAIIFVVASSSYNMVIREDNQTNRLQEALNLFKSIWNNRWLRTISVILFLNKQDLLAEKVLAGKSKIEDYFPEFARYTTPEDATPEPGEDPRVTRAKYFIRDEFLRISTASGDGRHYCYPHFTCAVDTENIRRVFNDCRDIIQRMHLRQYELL
UniProt P85037: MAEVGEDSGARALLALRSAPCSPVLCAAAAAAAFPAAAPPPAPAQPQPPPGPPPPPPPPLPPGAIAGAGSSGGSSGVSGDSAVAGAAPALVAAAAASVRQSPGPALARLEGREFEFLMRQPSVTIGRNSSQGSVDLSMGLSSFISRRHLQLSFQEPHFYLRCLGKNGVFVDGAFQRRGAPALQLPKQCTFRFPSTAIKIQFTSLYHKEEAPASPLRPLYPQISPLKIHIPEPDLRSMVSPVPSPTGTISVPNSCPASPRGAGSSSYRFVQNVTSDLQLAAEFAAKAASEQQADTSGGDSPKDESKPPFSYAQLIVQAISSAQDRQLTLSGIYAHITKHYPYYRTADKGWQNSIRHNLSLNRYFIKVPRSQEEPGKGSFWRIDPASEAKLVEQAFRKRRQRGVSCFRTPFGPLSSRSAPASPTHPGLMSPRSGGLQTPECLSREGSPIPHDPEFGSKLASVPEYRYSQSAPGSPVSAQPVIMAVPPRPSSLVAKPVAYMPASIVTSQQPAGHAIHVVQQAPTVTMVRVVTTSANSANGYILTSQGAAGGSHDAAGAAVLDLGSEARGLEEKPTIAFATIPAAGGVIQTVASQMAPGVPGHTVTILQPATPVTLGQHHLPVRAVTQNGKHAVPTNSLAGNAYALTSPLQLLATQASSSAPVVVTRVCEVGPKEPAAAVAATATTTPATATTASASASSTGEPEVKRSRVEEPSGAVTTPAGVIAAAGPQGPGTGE
UniProt P56192: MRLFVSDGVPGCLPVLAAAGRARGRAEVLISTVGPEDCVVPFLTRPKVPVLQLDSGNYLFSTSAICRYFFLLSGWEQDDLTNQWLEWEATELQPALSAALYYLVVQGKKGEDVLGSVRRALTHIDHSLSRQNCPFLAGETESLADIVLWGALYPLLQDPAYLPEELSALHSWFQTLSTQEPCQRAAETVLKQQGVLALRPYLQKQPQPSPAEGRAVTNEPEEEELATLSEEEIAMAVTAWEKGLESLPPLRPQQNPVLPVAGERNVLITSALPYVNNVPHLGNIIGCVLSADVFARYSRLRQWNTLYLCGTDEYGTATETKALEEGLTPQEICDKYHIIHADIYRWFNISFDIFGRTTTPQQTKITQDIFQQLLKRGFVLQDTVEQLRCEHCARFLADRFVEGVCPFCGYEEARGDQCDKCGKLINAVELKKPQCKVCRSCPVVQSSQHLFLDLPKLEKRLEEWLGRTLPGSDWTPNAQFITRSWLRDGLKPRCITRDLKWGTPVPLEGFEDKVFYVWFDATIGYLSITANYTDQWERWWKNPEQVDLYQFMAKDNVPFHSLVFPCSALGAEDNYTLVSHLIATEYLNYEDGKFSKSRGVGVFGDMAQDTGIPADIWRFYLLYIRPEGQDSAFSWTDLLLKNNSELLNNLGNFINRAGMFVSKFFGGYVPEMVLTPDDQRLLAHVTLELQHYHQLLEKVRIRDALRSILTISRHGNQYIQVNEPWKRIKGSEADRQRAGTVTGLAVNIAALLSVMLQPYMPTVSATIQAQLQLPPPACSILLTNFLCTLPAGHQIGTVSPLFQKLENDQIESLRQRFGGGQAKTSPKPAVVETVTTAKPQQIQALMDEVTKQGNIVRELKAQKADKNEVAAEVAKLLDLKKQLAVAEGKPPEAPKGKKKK
UniProt P98170, whole entry: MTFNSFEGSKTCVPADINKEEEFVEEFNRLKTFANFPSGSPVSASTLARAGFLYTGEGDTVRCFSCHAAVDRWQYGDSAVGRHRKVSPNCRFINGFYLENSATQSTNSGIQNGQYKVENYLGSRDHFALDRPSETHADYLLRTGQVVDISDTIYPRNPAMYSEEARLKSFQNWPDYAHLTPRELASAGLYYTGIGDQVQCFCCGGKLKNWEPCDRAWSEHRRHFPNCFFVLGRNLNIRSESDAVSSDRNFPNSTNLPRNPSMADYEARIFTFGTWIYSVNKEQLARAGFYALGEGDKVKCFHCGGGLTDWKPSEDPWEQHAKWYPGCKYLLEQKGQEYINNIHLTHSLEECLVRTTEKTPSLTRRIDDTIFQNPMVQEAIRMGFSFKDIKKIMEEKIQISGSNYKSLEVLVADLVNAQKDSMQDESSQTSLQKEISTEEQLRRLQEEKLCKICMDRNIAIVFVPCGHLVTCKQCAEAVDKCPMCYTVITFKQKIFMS
UniProt P62995: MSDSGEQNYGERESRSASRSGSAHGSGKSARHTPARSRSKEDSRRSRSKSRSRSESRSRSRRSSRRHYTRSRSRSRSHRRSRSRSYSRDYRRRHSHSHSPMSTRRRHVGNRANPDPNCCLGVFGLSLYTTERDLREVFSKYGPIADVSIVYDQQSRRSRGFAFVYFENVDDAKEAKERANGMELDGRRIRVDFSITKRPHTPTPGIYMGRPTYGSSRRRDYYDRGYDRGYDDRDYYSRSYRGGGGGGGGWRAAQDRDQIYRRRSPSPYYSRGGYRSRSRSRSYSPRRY
UniProt P55884, whole entry: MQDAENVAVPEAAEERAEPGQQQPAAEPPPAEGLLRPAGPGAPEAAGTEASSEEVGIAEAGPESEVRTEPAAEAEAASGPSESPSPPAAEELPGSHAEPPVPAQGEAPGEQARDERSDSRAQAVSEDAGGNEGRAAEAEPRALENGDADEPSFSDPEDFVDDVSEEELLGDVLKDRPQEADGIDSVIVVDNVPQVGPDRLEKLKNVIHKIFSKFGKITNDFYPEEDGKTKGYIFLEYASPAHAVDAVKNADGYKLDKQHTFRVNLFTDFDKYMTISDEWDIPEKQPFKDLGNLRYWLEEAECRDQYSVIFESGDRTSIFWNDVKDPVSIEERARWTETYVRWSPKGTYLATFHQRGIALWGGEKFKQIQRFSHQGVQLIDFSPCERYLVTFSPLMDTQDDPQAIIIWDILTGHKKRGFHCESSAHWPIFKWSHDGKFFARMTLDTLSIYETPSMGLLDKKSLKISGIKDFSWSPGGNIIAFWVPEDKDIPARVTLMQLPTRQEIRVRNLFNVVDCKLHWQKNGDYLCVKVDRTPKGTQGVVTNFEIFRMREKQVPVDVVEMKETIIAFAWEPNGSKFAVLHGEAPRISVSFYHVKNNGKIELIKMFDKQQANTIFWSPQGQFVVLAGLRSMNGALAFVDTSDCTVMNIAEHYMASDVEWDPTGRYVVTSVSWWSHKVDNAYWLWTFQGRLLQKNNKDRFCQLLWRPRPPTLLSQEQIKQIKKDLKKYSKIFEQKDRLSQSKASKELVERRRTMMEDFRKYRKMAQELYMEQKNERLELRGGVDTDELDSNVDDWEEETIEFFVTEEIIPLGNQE
UniProt P56199, whole entry: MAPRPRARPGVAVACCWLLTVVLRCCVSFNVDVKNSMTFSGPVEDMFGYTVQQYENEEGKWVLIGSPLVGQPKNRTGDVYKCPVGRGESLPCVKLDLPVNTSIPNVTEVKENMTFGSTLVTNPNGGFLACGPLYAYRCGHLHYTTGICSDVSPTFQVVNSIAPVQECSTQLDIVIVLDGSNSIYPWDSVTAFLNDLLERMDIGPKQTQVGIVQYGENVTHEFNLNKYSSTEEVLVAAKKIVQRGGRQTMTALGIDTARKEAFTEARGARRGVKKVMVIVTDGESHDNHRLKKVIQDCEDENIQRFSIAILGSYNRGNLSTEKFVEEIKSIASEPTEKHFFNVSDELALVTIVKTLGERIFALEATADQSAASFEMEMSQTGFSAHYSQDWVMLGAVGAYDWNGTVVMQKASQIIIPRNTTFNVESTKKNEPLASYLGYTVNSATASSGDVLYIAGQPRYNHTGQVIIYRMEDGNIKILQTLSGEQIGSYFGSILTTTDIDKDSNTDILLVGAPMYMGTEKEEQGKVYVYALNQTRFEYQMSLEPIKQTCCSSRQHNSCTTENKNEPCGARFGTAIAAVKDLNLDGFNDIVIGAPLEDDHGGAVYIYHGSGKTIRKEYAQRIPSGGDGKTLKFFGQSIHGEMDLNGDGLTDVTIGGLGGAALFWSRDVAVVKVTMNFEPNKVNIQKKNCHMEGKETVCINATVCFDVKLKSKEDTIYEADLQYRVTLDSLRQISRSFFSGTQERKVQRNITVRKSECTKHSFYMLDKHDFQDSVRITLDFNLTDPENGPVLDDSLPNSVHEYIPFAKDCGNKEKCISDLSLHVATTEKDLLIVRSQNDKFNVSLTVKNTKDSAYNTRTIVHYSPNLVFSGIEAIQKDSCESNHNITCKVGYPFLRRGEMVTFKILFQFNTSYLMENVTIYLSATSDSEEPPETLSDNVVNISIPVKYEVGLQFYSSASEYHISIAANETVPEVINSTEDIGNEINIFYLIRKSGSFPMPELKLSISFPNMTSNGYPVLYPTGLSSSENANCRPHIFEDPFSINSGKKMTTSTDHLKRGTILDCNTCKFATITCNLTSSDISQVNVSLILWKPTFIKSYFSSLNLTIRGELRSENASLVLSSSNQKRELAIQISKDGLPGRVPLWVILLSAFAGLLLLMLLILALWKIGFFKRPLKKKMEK
UniProt P50502: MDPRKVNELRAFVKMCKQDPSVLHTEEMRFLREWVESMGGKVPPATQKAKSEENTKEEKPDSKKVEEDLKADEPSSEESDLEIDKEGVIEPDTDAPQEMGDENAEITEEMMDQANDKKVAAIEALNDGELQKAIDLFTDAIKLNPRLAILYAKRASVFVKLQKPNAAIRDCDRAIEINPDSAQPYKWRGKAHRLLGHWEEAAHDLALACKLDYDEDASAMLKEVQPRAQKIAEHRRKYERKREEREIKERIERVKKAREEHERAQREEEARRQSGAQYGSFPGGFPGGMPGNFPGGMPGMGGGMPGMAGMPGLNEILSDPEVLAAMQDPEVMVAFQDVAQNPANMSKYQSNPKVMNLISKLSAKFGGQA

± gives the standard deviation of the averaged measurements. The list shows a part of the results.

Compound in one assay: Nc1nc2c(ncn2[C@@H]2O[C@H](COP(=O)(O)OP(=O)(O)OP(=O)(O)O)[C@@H](O)[C@H]2O)c(=O)[nH]1 [guanosine triphosphate]
The experiment in a line: NP40-soluble protein abundance relative to vehicle (solubility fold change) (ratio); higher = more soluble protein in presence of GTP. To be noted: concentration: 1mM. In outline:
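Jurkat crude lysate prepared with a Dounce homogeniser was treated at eight concentrations spanning 0.1 to 10 mM, 10 min at room temperature then 3 min at 37 °C. Solubilisation with 0.8% NP40 and benzonase and ultracentrifugation preceded TMT labelling of the supernatant for LC-MS/MS. Fold change against the detergent-processed vehicle was determined per replicate from vsn-normalised intensities, across three independent experiments.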
On to UniProt P61129, for which the NP40-soluble protein abundance was determined as 0.929 ± 0.16.

For the target CTSC (UniProt P53634), the NP40-soluble protein abundance amounted to 0.986 ± 0.056.

Consider UniProt P56381, for which the NP40-soluble protein abundance came out at 1.06 ± 0.16.

As for UniProt P61764 and related entries, the NP40-soluble protein abundance was 0.974 ± 0.042.

Take UniProt P60604: the NP40-soluble protein abundance worked out at 1.12 ± 0.048.

Consider EIF5 (UniProt P55010), for which the NP40-soluble protein abundance was 0.97 ± 0.068.

For the target MRPS9 (UniProt P82933), the NP40-soluble protein abundance stood at 1.23 ± 0.25.

Take PPP2CA (UniProt P67775): the NP40-soluble protein abundance worked out at 0.99 ± 0.031.

In the case of MRPS35 (UniProt P82673), the NP40-soluble protein abundance is 1.23 ± 0.34.

Turning to UniProt P50995 and related entries, the NP40-soluble protein abundance is 0.957 ± 0.091.

UniProt P54920 and related entries: the NP40-soluble protein abundance was determined as 0.978 ± 0.042.

With UniProt P61009, the NP40-soluble protein abundance is 0.961 ± 0.017.

Turning to UniProt P60953, the NP40-soluble protein abundance stood at 0.871 ± 0.13.

Regarding UniProt P62495, the NP40-soluble protein abundance is 0.903 ± 0.027.

Take “UniProt P63092-2|P63092-3|P63092 and related entries”: the NP40-soluble protein abundance was 0.922 ± 0.025.

With FOXK1 (UniProt P85037), the NP40-soluble protein abundance is 1.051 ± 0.0061.

Regarding MARS (UniProt P56192), the NP40-soluble protein abundance worked out at 1.12 ± 0.14.

Take XIAP (UniProt P98170): the NP40-soluble protein abundance came to 1.06 ± 0.13.

UniProt P62995 and related entries: the NP40-soluble protein abundance is 1.64 ± 0.54.

For UniProt P55884 and related entries, the NP40-soluble protein abundance is 1.03 ± 0.068.

Regarding UniProt P84095, the NP40-soluble protein abundance amounted to 0.902 ± 0.062.

Turning to NCBP2 (UniProt P52298), the NP40-soluble protein abundance is 1.02 ± 0.036.

As for UniProt P54727 and related entries, the NP40-soluble protein abundance came out at 0.937 ± 0.044.

As for UniProt P60983 and related entries, the NP40-soluble protein abundance stood at 1.05 ± 0.15.

For PCBD1 (UniProt P61457), the NP40-soluble protein abundance worked out at 1.05 ± 0.074.

Consider UniProt P62314, for which the NP40-soluble protein abundance is 1.03 ± 0.12.

In the case of ITGA1 (UniProt P56199), the NP40-soluble protein abundance was determined as 1.04 ± 0.2.

As to UniProt P51532 and related entries, the NP40-soluble protein abundance was determined as 1.1 ± 0.083.

For the target UniProt P54687 and related entries, the NP40-soluble protein abundance amounted to 0.928 ± 0.019.

As for UniProt P51948 and related entries, the NP40-soluble protein abundance was 1.04 ± 0.021.

On to UniProt P62318 and related entries, for which the NP40-soluble protein abundance amounted to 1.24 ± 0.17.

As for UniProt P51572 and related entries, the NP40-soluble protein abundance was determined as 0.996 ± 0.052.

For the target UniProt P61221, the NP40-soluble protein abundance was found to be 0.94 ± 0.033.

As to UniProt P62072, the NP40-soluble protein abundance amounted to 1.06 ± 0.086.

In the case of ST13 (UniProt P50502), the NP40-soluble protein abundance stood at 0.879 ± 0.051.

As to COG7 (UniProt P83436), the NP40-soluble protein abundance is 1 ± 0.032.

Take GSTO1 (UniProt P78417): the NP40-soluble protein abundance was found to be 0.892 ± 0.022.

With UniProt P60174 and related entries, the NP40-soluble protein abundance was 0.875 ± 0.096.

Still in this assay, the particulars now being: concentration: 2mM.
For UniProt P61129, the NP40-soluble protein abundance came out at 0.907 ± 0.18.

Take CTSC (UniProt P53634): the NP40-soluble protein abundance is 0.99 ± 0.02.

In the case of UniProt P56381, the NP40-soluble protein abundance stood at 1.05 ± 0.11.

With UniProt P61764 and related entries, the NP40-soluble protein abundance was found to be 0.961 ± 0.061.

UniProt P60604: the NP40-soluble protein abundance came out at 1.06 ± 0.065.

Consider EIF5 (UniProt P55010), for which the NP40-soluble protein abundance was found to be 0.916 ± 0.089.

Turning to MRPS9 (UniProt P82933), the NP40-soluble protein abundance amounted to 1.34 ± 0.31.

Turning to PPP2CA (UniProt P67775), the NP40-soluble protein abundance was determined as 0.94 ± 0.012.

For MRPS35 (UniProt P82673), the NP40-soluble protein abundance amounted to 1.31 ± 0.33.

Regarding UniProt P50995 and related entries, the NP40-soluble protein abundance stood at 0.896 ± 0.12.

For the target UniProt P54920 and related entries, the NP40-soluble protein abundance stood at 0.963 ± 0.039.

UniProt P61009: the NP40-soluble protein abundance is 0.922 ± 0.058.

With UniProt P60953, the NP40-soluble protein abundance stood at 0.831 ± 0.12.

With UniProt P62495, the NP40-soluble protein abundance was found to be 0.898 ± 0.061.

As to “UniProt P63092-2|P63092-3|P63092 and related entries”, the NP40-soluble protein abundance turned out to be 0.91 ± 0.024.

In the case of FOXK1 (UniProt P85037), the NP40-soluble protein abundance is 1.01 ± 0.075.

With MARS (UniProt P56192), the NP40-soluble protein abundance amounted to 1.18 ± 0.2.

In the case of XIAP (UniProt P98170), the NP40-soluble protein abundance is 1.06 ± 0.18.

For the target UniProt P62995 and related entries, the NP40-soluble protein abundance was 1.73 ± 0.47.

For the target UniProt P55884 and related entries, the NP40-soluble protein abundance was found to be 1.14 ± 0.18.

Consider UniProt P84095, for which the NP40-soluble protein abundance stood at 0.887 ± 0.065.

Consider NCBP2 (UniProt P52298), for which the NP40-soluble protein abundance is 1.03 ± 0.084.

For the target UniProt P54727 and related entries, the NP40-soluble protein abundance was 0.881 ± 0.054.

As to UniProt P60983 and related entries, the NP40-soluble protein abundance was found to be 1.03 ± 0.085.

PCBD1 (UniProt P61457): the NP40-soluble protein abundance came to 1.04 ± 0.059.

For the target UniProt P62314, the NP40-soluble protein abundance came to 1.15 ± 0.18.

Consider ITGA1 (UniProt P56199), for which the NP40-soluble protein abundance stood at 1.07 ± 0.21.

As to UniProt P51532 and related entries, the NP40-soluble protein abundance was 1.15 ± 0.13.

Take UniProt P54687 and related entries: the NP40-soluble protein abundance stood at 0.933 ± 0.077.

For UniProt P51948 and related entries, the NP40-soluble protein abundance was determined as 1.04 ± 0.043.

As for UniProt P62318 and related entries, the NP40-soluble protein abundance stood at 1.17 ± 0.1.

UniProt P51572 and related entries: the NP40-soluble protein abundance amounted to 0.988 ± 0.074.

Consider UniProt P61221, for which the NP40-soluble protein abundance is 0.96 ± 0.08.

In the case of UniProt P62072, the NP40-soluble protein abundance is 1.03 ± 0.15.

Take ST13 (UniProt P50502): the NP40-soluble protein abundance came to 0.868 ± 0.081.

COG7 (UniProt P83436): the NP40-soluble protein abundance was found to be 1 ± 0.036.

As to GSTO1 (UniProt P78417), the NP40-soluble protein abundance was 0.884 ± 0.037.

As for UniProt P60174 and related entries, the NP40-soluble protein abundance is 0.824 ± 0.12.
